In paper PMC9360443:
No constants are given. Whether binding was seen depends on the method and setting. In cells and extracts the contact can be indirect. Some entries that bind do so weakly or less than the wild type. Where a sequence is shown, tags or fusion partners need not be part of it.

Chains of the proteins cited; added tags and fusions are not shown.
UniProt P98170: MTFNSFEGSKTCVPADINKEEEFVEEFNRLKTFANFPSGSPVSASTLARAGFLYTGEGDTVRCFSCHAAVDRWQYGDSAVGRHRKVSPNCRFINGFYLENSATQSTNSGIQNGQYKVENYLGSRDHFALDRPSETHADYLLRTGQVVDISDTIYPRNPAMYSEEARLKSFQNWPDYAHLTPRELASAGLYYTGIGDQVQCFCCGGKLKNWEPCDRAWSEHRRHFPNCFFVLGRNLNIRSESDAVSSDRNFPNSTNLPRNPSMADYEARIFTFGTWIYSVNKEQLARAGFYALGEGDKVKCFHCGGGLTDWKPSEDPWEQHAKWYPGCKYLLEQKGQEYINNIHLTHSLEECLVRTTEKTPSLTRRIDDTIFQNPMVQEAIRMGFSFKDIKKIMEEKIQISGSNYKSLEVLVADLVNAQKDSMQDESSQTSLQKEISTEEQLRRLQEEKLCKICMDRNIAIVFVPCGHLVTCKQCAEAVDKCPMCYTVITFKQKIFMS

Legend:
FLAG-LATS1^WT (human) [1] = target: T1, FLAG-LATS1^WT (human) (UniProt O95835); test: co-IP; A375 lysate, FLAG-LATS1 (WT or KD) immunoprecipitated with anti-FLAG beads, GFP-SMAC and HA-RASSF1A co-transfected, serum-deprived; 1% NP40, 20 mM HEPES, 300 mM NaCl, 1 mM EDTA, 1 mM EGTA, 10 mM NaF; MST2 or C-IAP1 siRNA where indicated
T1 sequence: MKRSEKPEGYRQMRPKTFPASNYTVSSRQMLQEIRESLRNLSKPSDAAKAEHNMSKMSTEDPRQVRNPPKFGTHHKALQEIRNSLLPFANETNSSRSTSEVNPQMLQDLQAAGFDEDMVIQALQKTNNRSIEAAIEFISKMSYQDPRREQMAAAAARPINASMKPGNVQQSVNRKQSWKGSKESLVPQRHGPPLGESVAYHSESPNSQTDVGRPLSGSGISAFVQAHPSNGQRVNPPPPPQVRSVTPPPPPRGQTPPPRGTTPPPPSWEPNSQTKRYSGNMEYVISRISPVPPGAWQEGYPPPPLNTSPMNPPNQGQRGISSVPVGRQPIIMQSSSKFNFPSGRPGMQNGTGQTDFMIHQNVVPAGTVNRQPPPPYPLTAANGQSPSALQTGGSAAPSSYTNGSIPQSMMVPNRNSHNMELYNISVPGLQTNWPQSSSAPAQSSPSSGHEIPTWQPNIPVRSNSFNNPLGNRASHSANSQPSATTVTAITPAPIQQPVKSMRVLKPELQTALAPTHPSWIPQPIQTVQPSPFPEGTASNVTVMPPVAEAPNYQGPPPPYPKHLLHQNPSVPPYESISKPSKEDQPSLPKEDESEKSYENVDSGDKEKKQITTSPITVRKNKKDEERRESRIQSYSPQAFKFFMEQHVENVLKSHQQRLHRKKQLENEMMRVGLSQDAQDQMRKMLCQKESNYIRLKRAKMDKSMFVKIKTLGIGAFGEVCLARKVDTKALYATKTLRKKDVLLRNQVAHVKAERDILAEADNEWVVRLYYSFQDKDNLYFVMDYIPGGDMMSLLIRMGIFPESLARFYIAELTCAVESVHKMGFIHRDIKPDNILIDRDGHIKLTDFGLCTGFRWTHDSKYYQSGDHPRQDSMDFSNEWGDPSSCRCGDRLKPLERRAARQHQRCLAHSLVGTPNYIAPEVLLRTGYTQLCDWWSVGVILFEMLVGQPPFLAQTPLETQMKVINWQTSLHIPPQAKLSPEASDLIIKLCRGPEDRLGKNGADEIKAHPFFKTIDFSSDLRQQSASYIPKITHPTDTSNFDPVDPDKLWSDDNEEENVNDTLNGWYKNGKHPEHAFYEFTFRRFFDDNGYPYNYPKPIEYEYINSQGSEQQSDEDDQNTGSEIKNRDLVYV

FLAG-LATS1^WT (human) [2] = target: T1, FLAG-LATS1^WT (human); test: co-IP; A375 lysate, FLAG-LATS1 immunoprecipitated with anti-FLAG beads, with HA-RASSF1A or empty vector; 1% NP40, 150 mM NaCl lysis buffer
FLAG-LATS1^WT (human) [3] = target: T1, FLAG-LATS1^WT (human); test: co-IP; A375 lysate, FLAG-LATS1 (WT or KD) immunoprecipitated with anti-FLAG beads, GFP-SMAC and HA-RASSF1A co-transfected, serum-deprived; 1% NP40, 20 mM HEPES, 300 mM NaCl, 1 mM EDTA, 1 mM EGTA, 10 mM NaF; MST2 or C-IAP1 siRNA where indicated; remark: listed apart in the source

**Q.** How did the binding (FLAG-LATS1^WT (human) [1]) turn out when XIAP (from UniProt P98170 1-497) was run?
**A.** The binding was “binds”.

B1: HA-RASSF1A (protein, UniProt Q9NS23-2 1-340)
chain: MSGEPELIELRELAPAGRAGKGRTRLERANALRIARGTACNPTRQLVPGRGHRFQPAGPATHTWCDLCGDFIWGVVRKGLQCAHCKFTCHYRCRALVCLDCCGPRDLGWEPAVERDTNVDEPVEWETPDLSQAEIEQKIKEYNAQINSNLFMSLNKDGSYTGFIKVQLKLVRPVSVPSSKKPPSLQDARRGPGRGTSVRRRTSFYLPKDAVKHLHVLSRTRAREVIEALLRKFLVVDDPRKFALFERAERHGQVYLRKLLDDEQPLRLRLLAGPSDKALSFVLKENDSGEVNWDAFSMPELHNFLRILQREEEEHLRQILQKYSYCRQKIQEALHACPLG
**Q.** With B1 as the molecule, how does the binding (FLAG-LATS1^WT (human) [2]) read?
**A.** The binding was “binds”.

**Q.** And the binding (FLAG-LATS1^WT (human) [3])?
**A.** Its binding is “binds”.
